This passage reports binding results from paper PMC7732092.

By UniProt entry, the sequences of proteins in these tests, tags left out.
UniProt Q9Y657: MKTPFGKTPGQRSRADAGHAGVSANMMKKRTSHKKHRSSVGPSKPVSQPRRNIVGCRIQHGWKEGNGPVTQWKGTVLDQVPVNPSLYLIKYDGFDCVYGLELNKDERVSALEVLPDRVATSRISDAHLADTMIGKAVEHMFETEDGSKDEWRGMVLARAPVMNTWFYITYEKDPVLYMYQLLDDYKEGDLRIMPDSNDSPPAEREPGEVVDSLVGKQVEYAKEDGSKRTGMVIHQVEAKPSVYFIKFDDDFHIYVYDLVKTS
UniProt P03165: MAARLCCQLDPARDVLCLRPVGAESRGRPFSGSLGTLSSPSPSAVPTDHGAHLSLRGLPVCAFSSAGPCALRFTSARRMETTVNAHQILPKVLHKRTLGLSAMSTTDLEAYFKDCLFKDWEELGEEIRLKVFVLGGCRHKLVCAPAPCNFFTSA

These are yes or no findings as the source states them, for the method shown. Binding seen in cells or lysates may run through a third protein. Some results given as binding are weak or reduced against the parent protein; the word gives no strength.

Assay [1] has as its target Spindlin1 (endogenous) (human (endogenous in HepG2)) (UniProt Q9Y657). The assay can be described thus: co-IP; whole-cell extracts of HepG2 cells transduced with a lentiviral vector encoding Flag-HA-HBx; immunoprecipitation with anti-Spindlin1 antibodies; Western blot with anti-HA or anti-Spin1 antibodies.
For assay [2], the target named is His-myc-Spindlin1 (UniProt Q9Y657). The assay can be described thus: co-IP; HEK293 cells transfected with His-myc-Spin1 and HA-HBx; immunoprecipitation with anti-Myc antibodies; Western blot with anti-His or anti-Myc and anti-HA antibodies. On the technique in general: In western blotting, separated proteins are transferred to a membrane and probed.
Assay [3] addresses Flag-tagged HBx wt (hepatitis B virus) (UniProt P03165). The assay can be described thus: co-IP; HEK293 cells co-transfected with Flag-tagged HBx and His-myc-Spin1; immunoprecipitation with anti-Flag antibodies; anti-Myc and anti-Flag immunoblot, Odyssey system; signal normalised to HBx in the IP/HBx in the input.

As to Flag-HA-HBx (from UniProt P03165 1-154), the binding result in assay [1] was “binds”. Turning to HA-HBx (from UniProt P03165 1-154), the binding result in assay [2] is “binds”. “His-myc-Spindlin1 (from UniProt Q9Y657 1-262)”: the binding result in assay [3] is on record as “binds”.
